Experimental data from US9598720B2, “Monomeric and polymeric linkers useful for conjugating biological molecules and other substances” (DAKO Denmark A/S, priority 2005, dated 2017).

Experiment: Fluorescence intensity of fluorescein linker derivatives and streptavidine conjugates in solution
Assay type: physicochemical
Settings: for Intensity at 520 nm (arbitrary units): 100 nM total fluorescein in 150 mM carbonate pH 8, excited at 488 nm; for relative intensity for each flurescein: normalised to 100 nM free carboxy fluorescein, 150 mM carbonate pH 8, 488/520 nm; for total intensity for compound = relative intensity × number of fluresceins: normalised to free carboxy fluorescein

Row | Substance | Intensity at 520 nm (arbitrary units) | relative intensity for each flurescein | total intensity for compound = relative intensity × number of fluresceins
1 | Flu-L90-Lys(Flu)-L90-Lys(Flu)-L60-Lys(betaala)-Lys(betaala)-NH2 [Linker derivative 9] | 517 | 0.58 | 1.75
2 | Flu-L120-Lys(Flu)-L120-Lys(Flu)-L120-Lys(Flu)120-Lys(betaala)-Lys(betaala)-NH2 [Linker derivative 11] | 535 | 0.61 | 2.42
3 | carboxy fluorescein [reference compound] | 884 | 1.000 (reference) | 1.000 (refer
